This is one part of the list. Shown are side measurements of this screen, not its main read-out; they come without a call. Compounds called inactive in the main read-out are mostly missing here. The note in brackets gives the kind of curve behind each potency; many fits are weak.
Assay: qHTS Assay for Lipid Storage Modulators in Drosophila S3 Cells;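 for cell number change: cells counted by Cell Tracker Red CMTPX staining in the red channel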
Details: BODIPY lipid droplet fluorescence, 18-24 h; for cell number change: measured here: cell count max response, cells fed with added oleic acid
In short: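 Laser-scanning cytometry quantifies lipid droplet accumulation (500–530 nm total intensity; droplet/cell object ratio) in oleic acid-fed (400 uM added) Drosophila S3 cells treated with a concentration series. 20 uM Triacsin C defined 100% inhibition.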

[1] = measured here: cell number channel AC50, cells fed with added oleic acid
[2] = measured here: lipid fluorescence (Fed channel) AC50, cells fed with added oleic acid

| Compound | cell number change [%] | AC50 [1] | AC50 [2] |
| --- | --- | --- | --- |
| O=C(c1ccc(COc2ccc(Cl)cc2)o1)N1CCN(Cc2ccc3c(c2)OCO3)CC1 | -6.95 |  |  |
| O=C(Nc1nn[nH]n1)c1cc(-c2ccc(Cl)c(Cl)c2Cl)nc2ccccc12 | 145 | 29.1 µM [rising, single point] |  |
| O=C(Nc1ccccc1)/C(=C1\CCCN1)[N+](=O)[O-] | -27.8 | 0.116 µM [falling, full curve, poor fit] | 0.164 µM [falling, full curve] |
| O=S(=O)(Nc1ncccn1)c1ccc(NS(=O)(=O)c2cc(Cl)ccc2Cl)cc1 | 17.2 |  |  |
| Cc1ccc(/C=N/NC(=O)Cc2ccc(Cl)cc2)c(O)c1 | -12.2 |  | 18.4 µM [falling, single point] |
| Fc1cc(F)c(F)c(SCCc2ccncc2)c1F | -42.5 | 23.1 µM [falling, single point] | 29.1 µM [falling, single point] |
| O=C(NC(=S)Nc1cccc(S(=O)(=O)NC2=NCCC2)c1)c1cc(-c2ccco2)nc2ccccc12 | -24.7 |  | 29.1 µM [falling, single point] |
| Cc1noc(C)c1NC(=O)NCCN1CCN(Cc2ccccc2)CC1 | -21.4 |  | 29.1 µM [falling, single point] |
| COc1cccc(NC(=O)CN(C)C(=O)c2oc3c(ccc4ccccc43)c2C)c1 | 4.36 |  | 6.51 µM [rising, partial curve] |
| Nc1nc(-c2ccc(-c3ccccc3)cc2)cs1 | 54.4 | 14.6 µM [rising, partial curve, poor fit] |  |
| COc1ccc(Br)cc1CNC(=O)Cn1nc(C)n2cccc2c1=O | -24.5 |  | 6.51 µM [rising, single point] |
| COc1ccc(OC)c(NC(=O)CCC(=O)N(Cc2ccc(OC)c(OC)c2)c2nccs2)c1 | 0.753 |  | 5.17 µM [falling, single point] |
| CCOC(=O)C1CCN(S(=O)(=O)c2c[nH]c(=O)[nH]c2=O)CC1 | 10.5 |  |  |
| O=C(CNCc1ccc(F)cc1)Nc1ccccc1[N+](=O)[O-] | -8.94 |  | 6.51 µM [falling, partial curve, poor fit] |
| COc1ccc(-n2nc3c(c2NC(=O)COc2cccc(OC)c2)CS(=O)(=O)C3)cc1 |  | 0.146 µM [falling, full curve, poor fit] |  |
| CC(=O)Nc1ccc2c(c1)C(=O)N(c1ccc(C)cc1)C2=O | 110 | 4.61 µM [rising, partial curve] | 2.91 µM [rising, partial curve] |
| CCc1cc(C(=O)NC2CCCN(Cc3ccccc3F)C2)n(C)n1 (stereo not given) | -0.597 |  | 5.17 µM [rising, partial curve] |
| Cc1ccc(C(CC(=O)N2CCNCC2)c2ccccc2)c(O)c1C (stereo not given) | 97.2 | 6.51 µM [rising, partial curve] |  |
| Cc1ccc(N=C2CSC(=O)N2)cc1 | -24.4 |  | 25.9 µM [falling, single point] |
| Cn1c(SCC(=O)NC2CCCCC2)nnc1-c1cc2ccccc2o1 | -8.7 |  | 6.51 µM [falling, full curve, poor fit] |
| CC1=C(C(=O)Nc2ccccc2C(=O)NC2CCC(C)CC2)SCCO1 (stereo not given) | 27.4 |  | 18.4 µM [rising, single point] |

| Compound | cell number change [%] | AC50 [1] | AC50 [2] |
| --- | --- | --- | --- |
| O=C(Nc1ccc(Cl)cc1)C1CCCN(C2=NS(=O)(=O)c3ccccc32)C1 (stereo not given) | 0.752 |  | 6.51 µM [falling, single point] |
| CCCc1cc(=O)n2[nH]c(-c3ccc(OC)cc3)nc2n1 | 38.8 | 14.6 µM [rising, single point] |  |
| O=C(COc1ccccc1F)c1ccc(O)cc1O | -8.84 |  |  |
| Cc1ccccc1C(=O)NCCNC(=O)c1cnccn1 | 3.95 |  | 1.58 µM [rising, partial curve] |
| CN1/C(=C/C=N/NC(=O)c2ccc([N+](=O)[O-])cc2)C(C)(C)c2ccccc21 | 16.4 |  | 14.6 µM [rising, single point] |
| Cc1cc(NC(=O)C(C)(C)C)no1 | -184 | 20.6 µM [falling, partial curve] | 0.00461 µM [falling, full curve, poor fit] |
| CCSc1nc(-c2ccco2)ccc1C#N | 23.8 |  | 6.51 µM [falling, single point] |
| O=C(C1CCC1)N1CCc2cc(S(=O)(=O)NCC3COc4ccccc4O3)ccc21 (stereo not given) | 283 | 20.6 µM [rising, partial curve] |  |
| COc1ccccc1OCC(=O)Nc1sc2c(c1C(=O)NCC1CCCO1)CCC2 (stereo not given) | -21.9 |  |  |
| Cc1nn(CCC(=O)NCc2ccc(OC(C)C)cc2)c(=O)c2nn(-c3ccccc3)c(C)c12 | 23.2 | 1.3 µM [rising, full curve, poor fit] | 4.61 µM [rising, partial curve, poor fit] |
| CCOc1ccc2nc(SCC(=O)c3ccccc3)sc2c1 | -0.417 |  | 0.231 µM [falling, full curve] |
| Cc1ccc(SC(C)C(=O)Nc2ccc(S(=O)(=O)N3CCOCC3)cc2)cc1 (stereo not given) |  |  | 11.6 µM [falling, partial curve, poor fit] |
| O=C(c1ccc(Cl)c(F)c1F)N1CCOCC1 | 10.9 |  | 6.51 µM [falling, full curve] |
| Cc1ccc(-c2nnc(SCC(=O)Nc3nc4c(s3)CCCC4)n2C)cc1 | -0.559 |  | 0.00461 µM [falling, full curve, poor fit] |
| O=C(Cn1nc(-c2ccccc2)ccc1=O)NCc1ccc2c(c1)OCO2 | 14.8 |  |  |
| O=C(CCCCCN1C(=O)c2cccc3cccc(c23)C1=O)N1CCOCC1 | 19.2 |  |  |
| CC/C=C/C(=O)N1CC2(CC(c3cccc(NC(=O)COc4ccc(Cl)cc4)c3)=NO2)C[C@H]1C(N)=O (stereo not given in full) | -11.4 |  | 16.4 µM [falling, single point] |
| COc1ccc(S(=O)(=O)N2Cc3ccccc3CC2C(=O)Nc2nccs2)cc1OC (stereo not given) |  | 1.3 µM [rising, full curve] | 0.517 µM [rising, partial curve, poor fit] |
| Cc1ccc(-c2ccc(=O)n(Cc3ccc(F)cc3Cl)n2)cc1 | -27.5 |  | 29.1 µM [falling, single point] |
| N#Cc1ccccc1CSc1nc2ccc(NC(=O)c3ccccc3C(=O)O)cc2s1 | 9.9 |  |  |
| Cc1cnc(C(=O)OCC(=O)Nc2sc3c(c2C(N)=O)CCCC3)cn1 | -52.1 | 29.1 µM [falling, single point] | 3.66 µM [falling, single point] |

15 of the compounds above, with bars between the fields.
Compound | cell number change [%] | AC50 [1] | AC50 [2]
CN1/C(=C/C=N/NC(=O)c2ccc([N+](=O)[O-])cc2)C(C)(C)c2ccccc21 | 16.4 |  | 14.6 µM [rising, single point]
Cc1cc(NC(=O)C(C)(C)C)no1 | -184 | 20.6 µM [falling, partial curve] | 0.00461 µM [falling, full curve, poor fit]
CCSc1nc(-c2ccco2)ccc1C#N | 23.8 |  | 6.51 µM [falling, single point]
O=C(C1CCC1)N1CCc2cc(S(=O)(=O)NCC3COc4ccccc4O3)ccc21 (stereo not given) | 283 | 20.6 µM [rising, partial curve] | 
COc1ccccc1OCC(=O)Nc1sc2c(c1C(=O)NCC1CCCO1)CCC2 (stereo not given) | -21.9 |  | 
Cc1nn(CCC(=O)NCc2ccc(OC(C)C)cc2)c(=O)c2nn(-c3ccccc3)c(C)c12 | 23.2 | 1.3 µM [rising, full curve, poor fit] | 4.61 µM [rising, partial curve, poor fit]
CCOc1ccc2nc(SCC(=O)c3ccccc3)sc2c1 | -0.417 |  | 0.231 µM [falling, full curve]
Cc1ccc(SC(C)C(=O)Nc2ccc(S(=O)(=O)N3CCOCC3)cc2)cc1 (stereo not given) |  |  | 11.6 µM [falling, partial curve, poor fit]
O=C(c1ccc(Cl)c(F)c1F)N1CCOCC1 | 10.9 |  | 6.51 µM [falling, full curve]
Cc1ccc(-c2nnc(SCC(=O)Nc3nc4c(s3)CCCC4)n2C)cc1 | -0.559 |  | 0.00461 µM [falling, full curve, poor fit]
O=C(Cn1nc(-c2ccccc2)ccc1=O)NCc1ccc2c(c1)OCO2 | 14.8 |  | 
O=C(CCCCCN1C(=O)c2cccc3cccc(c23)C1=O)N1CCOCC1 | 19.2 |  | 
CC/C=C/C(=O)N1CC2(CC(c3cccc(NC(=O)COc4ccc(Cl)cc4)c3)=NO2)C[C@H]1C(N)=O (stereo not given in full) | -11.4 |  | 16.4 µM [falling, single point]
COc1ccc(S(=O)(=O)N2Cc3ccccc3CC2C(=O)Nc2nccs2)cc1OC (stereo not given) |  | 1.3 µM [rising, full curve] | 0.517 µM [rising, partial curve, poor fit]
Cc1ccc(-c2ccc(=O)n(Cc3ccc(F)cc3Cl)n2)cc1 | -27.5 |  | 29.1 µM [falling, single point]

Additional entries follow.

| Compound | cell number change [%] | AC50 [1] | AC50 [2] |
| --- | --- | --- | --- |
| Cn1nnnc1SCC(=O)N1CCCCC1 | -2.25 |  |  |
| CC1(C)CC2c3cccc(C(=O)O)c3C(=O)N2c2c1ccc1ccccc21 (stereo not given) | 21.6 |  | 23.1 µM [rising, single point] |
| Nc1c(C(=O)N/N=C/c2ccccc2Cl)oc2nc(-c3ccccc3)cc(-c3ccco3)c12 | -7.61 |  |  |
| CN(C)c1ccc(C(O)P(=O)(OCc2ccccc2)c2ccc(N(C)C)cc2)cc1 (stereo not given) | -13.6 |  |  |
| Cc1ccc(SCC(=O)OCC(=O)NC2CCCCCCC2)cc1 | -33 | 13 µM [falling, partial curve] |  |
| O=C(Nc1ccc(F)cc1)c1sc2cc(C(F)(F)F)cnc2c1-c1cccs1 | 27 | 3.66 µM [rising, full curve, poor fit] | 1.64 µM [falling, partial curve] |
| COc1ccc(-n2nc(C(=O)NCC(=O)N3CCC(C(N)=O)CC3)c3ccccc3c2=O)cc1 | 6.25 |  |  |
| O=C(c1ccc(Cl)c([N+](=O)[O-])c1)N1CCN(c2ccccc2)CC1 | -12.7 |  | 29.1 µM [falling, single point] |
| Cc1cccc(OCc2nnc(SCn3nnc4ccccc4c3=O)o2)c1 | -17.8 |  | 0.103 µM [rising, full curve, poor fit] |
| O=C(Nc1ccc2oc(-c3ccncc3)nc2c1)c1cccs1 |  |  | 0.13 µM [rising, full curve, poor fit] |
| Cc1ccc(-c2[nH]c(-c3ccc(C(=O)O)cc3)nc2-c2ccccc2)cc1 | -1.27 |  | 1.84 µM [rising, full curve, poor fit] |
| COc1ccc(N(C(=O)C(C)C)S(=O)(=O)c2ccc(Cl)cc2)cc1 | 5.46 |  |  |
| COc1ccc(CNS(=O)(=O)c2ccc(-c3cc(C)no3)cc2)cc1 | 13.7 | 3.26 µM [rising, single point] |  |
| CCCc1cc(-c2n[nH]c(=S)n2C(C)c2ccccc2)cs1 (stereo not given) | -15.4 |  |  |
| CN(c1nc2ccccc2nc1Cl)S(=O)(=O)c1ccccc1 | -18.1 |  |  |
| COc1ccc(CC(=O)Nc2c(C(=O)N3CCN(c4ccccc4OC)CC3)oc3ccccc23)cc1OC | -36.5 | 9.2 µM [falling, partial curve, poor fit] | 29.1 µM [falling, single point] |
| CC1(C)NC(=O)N(CN2C(=O)NC(C)(C)C2=O)C1=O | -29.2 |  | 20.6 µM [falling, partial curve] |
| CCc1nc(SCc2ccc(Br)cc2)n[nH]1 | 24.1 |  | 14.6 µM [rising, partial curve, poor fit] |
| COCC(C)NC(=O)c1cc(OC)cc(OC)c1 (stereo not given) | 16 |  |  |
| CCOC(=O)C(CC(=O)Nc1nc(C(C)=O)c(C)s1)C(C)c1ccccc1 (stereo not given) | 10.6 |  | 13 µM [falling, partial curve] |
| CC(=O)c1ccccc1OCc1ccc(C(=O)c2ccccc2)cc1 | -3.63 |  | 29.1 µM [falling, single point] |

From PubChem BioAssay AID2685 (National Center for Advancing Translational Sciences (NCATS), 2010)
